{"source": "the supplement of paper PMC5949888", "note": "Most values lie at the floor of the assay. Slopes are relative: functional sequences can read slightly below zero."}
{"system": "Saccharomyces cerevisiae PS128 hsf1 delta, HSF1(1-493) fusion", "assay": "growth estimate (transactivation domain function in HSF1 fusion, heat-shock survival) (a.u. (slope of normalised read count over time)); higher = stronger growth at 37°C, i.e. more transactivation activity", "conditions": "library: random library"}
{"substance": "SPEHGISAVFLVTC", "growth estimate": -0.243}
{"substance": "SPFFSTSLRCGRQRPTWTSI", "growth estimate": "< -0.25"}
{"substance": "SPGGHDTLRHLNWPRCGSIG", "growth estimate": "< -0.25"}
{"substance": "SPGHHSSPGRRGGLSTLSCA", "growth estimate": "< -0.25"}
{"substance": "SPGK", "growth estimate": "< -0.25"}
{"substance": "SPGTLSDIL", "growth estimate": "< -0.25"}
{"substance": "SPGTSGYSESCSKVQLSRLA", "growth estimate": "< -0.25"}
{"substance": "SPGWHCRHDALGFVGSLRPG", "growth estimate": "< -0.25"}
{"substance": "SPHTFSISLGSCEQALPTDR", "growth estimate": "< -0.25"}
{"substance": "SPIQR", "growth estimate": "< -0.25"}
{"substance": "SPIRQHKPPTWS", "growth estimate": "< -0.25"}
{"substance": "SPIRRDGSSGSKMTNRNVSR", "growth estimate": "< -0.25"}
{"substance": "SPKPFEHVI", "growth estimate": -0.199}
{"substance": "SPKSLQPSYTRPG", "growth estimate": "< -0.25"}
{"substance": "SPLACAFLRRSHGPEDSGSR", "growth estimate": "< -0.25"}
{"substance": "SPLHISTSAP", "growth estimate": "< -0.25"}
{"substance": "SPLRYNTIMYIITGLWLRDV", "growth estimate": "< -0.25"}
{"substance": "SPMFGASRASRLSC", "growth estimate": "< -0.25"}
{"substance": "SPNVGIR", "growth estimate": "< -0.25"}
{"substance": "SPNVRTTIDSQCIQGGTAKQ", "growth estimate": "< -0.25"}
{"substance": "SPPETLLNWMSCNVLGGSIC", "growth estimate": -0.234}
{"substance": "SPPL", "growth estimate": "< -0.25"}
{"substance": "SPPLLAKVLAWFWVANRRE", "growth estimate": "< -0.25"}
{"substance": "SPQQSGSKKQAAHDKGAVPT", "growth estimate": "< -0.25"}
{"substance": "SPQSARIDVRAITLGDIVGR", "growth estimate": "< -0.25"}
{"substance": "SPRARHLWFNPTS", "growth estimate": "< -0.25"}
{"substance": "SPRCISRGPRFHLG", "growth estimate": "< -0.25"}
{"substance": "SPRDRGGDPSGVLVPIRLPG", "growth estimate": "< -0.25"}
{"substance": "SPRDYPGR", "growth estimate": "< -0.25"}
{"substance": "SPRLGGCYTVVEISSKVACV", "growth estimate": "< -0.25"}
{"substance": "SPRLLRVDALDIVCNRRCGW", "growth estimate": "< -0.25"}
{"substance": "SPRSHPKRFQSTAY", "growth estimate": "< -0.25"}
{"substance": "SPSSIARWLKIGRKHARSRN", "growth estimate": "< -0.25"}
{"substance": "SPTKLDSRRNVLICRRGPTA", "growth estimate": "< -0.25"}
{"substance": "SPTLFSHVTVKKHGRGSPRM", "growth estimate": "< -0.25"}
{"substance": "SPTVIHEDITF", "growth estimate": "< -0.25"}
{"substance": "SPTWFRQAYFVRRVLKLTVT", "growth estimate": "< -0.25"}
{"substance": "SPVLGNPEWLADGSPPPPSR", "growth estimate": "< -0.25"}
{"substance": "SPWAHRRSVPKVFTVVKNGE", "growth estimate": "< -0.25"}
{"substance": "SQA", "growth estimate": "< -0.25"}
{"substance": "SQARRTGGRRVRSANSFFQA", "growth estimate": "< -0.25"}
{"substance": "SQDRLMLKWVESLRL", "growth estimate": "< -0.25"}
{"substance": "SQEENLKPTPSVVPGVVHVS", "growth estimate": "< -0.25"}
{"substance": "SQELGR", "growth estimate": "< -0.25"}
{"substance": "SQESWGT", "growth estimate": "< -0.25"}
{"substance": "SQF", "growth estimate": "< -0.25"}
{"substance": "SQGCNGGEELCIRGNERRLG", "growth estimate": "< -0.25"}
{"substance": "SQGFSIAERDHRTPQDPRR", "growth estimate": "< -0.25"}
{"substance": "SQGGQRQARGPERC", "growth estimate": "< -0.25"}
{"substance": "SQGLLAGPVNRMCAQLMIPH", "growth estimate": "< -0.25"}
{"substance": "SQIGFFDIMNSCGLWAYDWA", "growth estimate": 0.128}
{"substance": "SQIGSVIR", "growth estimate": "< -0.25"}
{"substance": "SQNSTILGAAYFCQHVSHVS", "growth estimate": "< -0.25"}
{"substance": "SQPLHVQGS", "growth estimate": "< -0.25"}
{"substance": "SQQFRTMPTIRVLDQLK", "growth estimate": "< -0.25"}
{"substance": "SQQFVSIARRSG", "growth estimate": "< -0.25"}
{"substance": "SQRLVQECSFGHCLPLRSKP", "growth estimate": "< -0.25"}
{"substance": "SQRRWRGEGPTPLPITLVAE", "growth estimate": "< -0.25"}
{"substance": "SQRVEGVAMLVSGYPSGLFS", "growth estimate": "< -0.25"}
{"substance": "SQSGRPYRARC", "growth estimate": "< -0.25"}
{"substance": "SQSVPMALAIILCSSRRLIH", "growth estimate": "< -0.25"}
{"substance": "SQTRGQDRSRINDESAEGYG", "growth estimate": "< -0.25"}
{"substance": "SQTVVDIFVGQRSK", "growth estimate": "< -0.25"}
{"substance": "SQVA", "growth estimate": "< -0.25"}
{"substance": "SQVHVENHGAPEVLWSLLTA", "growth estimate": "< -0.25"}
{"substance": "SQWE", "growth estimate": "< -0.25"}
{"substance": "SQYCPELLVAIWLLWTPHCS", "growth estimate": "< -0.25"}
{"substance": "SRACKFVDQDQYSTVPPFRE", "growth estimate": "< -0.25"}
{"substance": "SRADCPPIKACLL", "growth estimate": "< -0.25"}
{"substance": "SRAELICSSVGRSHHASNPT", "growth estimate": "< -0.25"}
{"substance": "SRAFALLFLARILGMVTPNE", "growth estimate": "< -0.25"}
{"substance": "SRAHEFERVGRSVLACRRPL", "growth estimate": "< -0.25"}
{"substance": "SRAISRTTLGL", "growth estimate": "< -0.25"}
{"substance": "SRALFDWVPLRRCVERLSGD", "growth estimate": "< -0.25"}
{"substance": "SRAT", "growth estimate": "< -0.25"}
{"substance": "SRAV", "growth estimate": "< -0.25"}
{"substance": "SRAWNGGDLNCYGG", "growth estimate": "< -0.25"}
{"substance": "SRC", "growth estimate": "< -0.25"}
{"substance": "SRCEGHVHVSSPI", "growth estimate": "< -0.25"}
{"substance": "SRCLVRWAASGKECGRRRDQ", "growth estimate": "< -0.25"}
{"substance": "SRCTSVSGVPANGALTSG", "growth estimate": "< -0.25"}
{"substance": "SRCVCSDAIPGVRFSTPLYL", "growth estimate": "< -0.25"}
{"substance": "SRDLSRKKGTVQPTATPGGQ", "growth estimate": "< -0.25"}
{"substance": "SRDSRGL", "growth estimate": "< -0.25"}
{"substance": "SRDTRLLLWAFFETRLGIPG", "growth estimate": "< -0.25"}
{"substance": "SREAHDEFLFEVPYYPMD", "growth estimate": -0.246}
{"substance": "SRENHG", "growth estimate": "< -0.25"}
{"substance": "SRESEETLTLGVLELMNTQD", "growth estimate": -0.195}
{"substance": "SREVVLNEAS", "growth estimate": "< -0.25"}
{"substance": "SRFQPR", "growth estimate": "< -0.25"}
{"substance": "SRGFFVGYDEQYNSEVRTRS", "growth estimate": "< -0.25"}
{"substance": "SRGHCLTVSKWVIIQQHCVD", "growth estimate": "< -0.25"}
{"substance": "SRGHFAEPSRGAPTGLCLSS", "growth estimate": "< -0.25"}
{"substance": "SRGHNSYSNPWHTGISRAED", "growth estimate": "< -0.25"}
{"substance": "SRGRTGDSPTCISSAIRHSA", "growth estimate": "< -0.25"}
{"substance": "SRGTRLY", "growth estimate": "< -0.25"}
{"substance": "SRGYEKCGPGLQPFSQAR", "growth estimate": "< -0.25"}
{"substance": "SRHGAAIVGLLVYEGTLRSE", "growth estimate": "< -0.25"}
{"substance": "SRHGGITQH", "growth estimate": "< -0.25"}
{"substance": "SRHPRNPRPMIFVYSARLIL", "growth estimate": "< -0.25"}
{"substance": "SRHTILPSALSSTSTAHLAQ", "growth estimate": "< -0.25"}
{"substance": "SRI", "growth estimate": "< -0.25"}
{"substance": "SRIPVVMILG", "growth estimate": "< -0.25"}
{"substance": "SRIVSHNMVQRKLAVLRRLR", "growth estimate": "< -0.25"}
{"substance": "SRKGHSATGTKSATRSGSSD", "growth estimate": "< -0.25"}
{"substance": "SRKGMRWMSSWYHRRIAPWT", "growth estimate": "< -0.25"}
{"substance": "SRL", "growth estimate": "< -0.25"}
{"substance": "SRLAVGAVG", "growth estimate": "< -0.25"}
{"substance": "SRLEVLQ", "growth estimate": "< -0.253"}
{"substance": "SRLNWRGDCWESEVNITCLR", "growth estimate": "< -0.25"}
{"substance": "SRLRDISSFMNLSSLELPAR", "growth estimate": "< -0.25"}
{"substance": "SRLWCCSQRFTADETKVPCS", "growth estimate": "< -0.25"}
{"substance": "SRMSWSMSDRAHIRDCRRGP", "growth estimate": "< -0.25"}
{"substance": "SRPELSQ", "growth estimate": -0.217}
{"substance": "SRPFHEAS", "growth estimate": "< -0.25"}
{"substance": "SRPPVSSFGI", "growth estimate": 0.229}
{"substance": "SRPSTPSKRFGASNDAMLSA", "growth estimate": "< -0.25"}
{"substance": "SRPTCLRDRFVIKQSHGLRN", "growth estimate": "< -0.25"}
{"substance": "SRQLYSCESAGDTSVSVWVL", "growth estimate": "< -0.25"}
{"substance": "SRQRYWHIGRWYSKMASLVQ", "growth estimate": "< -0.25"}
{"substance": "SRQSKRFQANRLGFWRGRSY", "growth estimate": "< -0.25"}
{"substance": "SRRGDGPCCDVGTSERARLR", "growth estimate": "< -0.25"}
{"substance": "SRRHGIAWRITLAHSL", "growth estimate": "< -0.25"}
{"substance": "SRRLPFRGTRNCYRRRLCNY", "growth estimate": "< -0.25"}
{"substance": "SRRSFYGRADKVTISIPDMC", "growth estimate": "< -0.25"}
{"substance": "SRRVGLRIPLWRGAK", "growth estimate": "< -0.25"}
{"substance": "SRS", "growth estimate": "< -0.25"}
{"substance": "SRSESWGY", "growth estimate": "< -0.25"}
{"substance": "SRSHPGLIPSSIEERFSGKG", "growth estimate": "< -0.25"}
{"substance": "SRSLELRTVDQSVYCWLRCR", "growth estimate": "< -0.25"}
{"substance": "SRSNITYLTK", "growth estimate": "< -0.25"}
{"substance": "SRSPYTAMFSVRSF", "growth estimate": "< -0.25"}
{"substance": "SRSQSAPVCRHVRVPLDRAF", "growth estimate": "< -0.25"}
{"substance": "SRSRLWKGYVVRSHVVSL", "growth estimate": "< -0.25"}
{"substance": "SRSRSRVRYANSQGQ", "growth estimate": "< -0.25"}
{"substance": "SRSSVTYSIVVPLESPQVYP", "growth estimate": "< -0.25"}
{"substance": "SRSTLGDFG", "growth estimate": "< -0.25"}
{"substance": "SRTG", "growth estimate": "< -0.25"}
{"substance": "SRTGTKQQVRDVRWAVR", "growth estimate": "< -0.25"}
{"substance": "SRTHVRSHWLVFACVGDSFP", "growth estimate": "< -0.25"}
{"substance": "SRTLRMRWLGESSFQISLSR", "growth estimate": "< -0.25"}
{"substance": "SRTVRLIY", "growth estimate": "< -0.25"}
